PubChem BioAssay AID1259308 | NCATS, 2017

Aim: 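Knock-downs that increase output of a recombinant reporter protein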 (primary screen)
System: human HEK293 embryonic kidney cells stably expressing firefly luciferase (HEK-CMV-Luc2-Hygro)
Reagents: single siRNA against human genes, 0.8 pmol siRNA per well
Duration: 72 h
Detection: 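Luciferase light (ONE-Glo) measured on one replicate plate set and viability (CellTiter-Glo) on the other, scaled to a negative control siRNA, with robust z-scores and luciferase per cell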
Direction: total luciferase, z-score and total luciferase, % of control: higher = more reporter protein produced; luciferase per cell, z-score: higher = more reporter output per viable cell; viable cells, % of control: higher = more viable cells
Call rule: 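Active when the median/MAD z-score for overall luciferase is greater than 3; a gene was taken forward for validation with new siRNAs if at least two of its three siRNAs passed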
Calls: active = raised luciferase; inactive = no rise
In all, the deposit lists about 59,000 reagents; shown is a random part of them. About 1,510 of all reagents (2.6%) were called active. 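Calls use total luciferase alone and ignore viability, so some active siRNAs may act by altering cell number.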 Entries without a mark were called inactive. The numbers tell different reagents against one gene apart. Reagent sequences are not shown.

no.	Gene	reagent no.	total luciferase, z-score	total luciferase, % of control	luciferase per cell, z-score	viable cells, % of control
1	THOC5	1	-1	62	-0.444	77.9
2	THOC5	2	-0.874	64.5	-0.477	81.7
3	THOC5	3	-0.206	77.8	0.64	73.4
4	CDK5R2	1	0.729	96.4	-0.363	119
5	CDK5R2	2	-0.153	78.8	-0.283	94.9
6	CDK5R2	3	0.125	84.4	0.242	88.5
7	TYRP1	1	-0.779	66.4	-0.475	84.1
8	TYRP1	2	-0.594	70.1	-0.423	87.5
9	TYRP1	3	3.23 (active)	146	2.74	79.5
10	AGTR2	1	0.211	86.1	-0.0293	96.9
11	AGTR2	2	0.93	100	0.739	92.3
12	AGTR2	3	0.00975	82.1	-0.246	97.9
13	CD180	1	-0.765	66.7	-0.809	92.2
14	CD180	2	-0.383	74.3	-0.497	94.6
15	CD180	3	-0.495	72	0.321	74
16	TSNAXIP1	1	-1.01	61.8	-1.39	99.7
17	TSNAXIP1	2	0.252	86.9	0.437	86.5
18	TSNAXIP1	3	-0.345	75	-0.579	97.7

The list goes on; the last 5 above are carried over.
no.	Gene	reagent no.	total luciferase, z-score	total luciferase, % of control	luciferase per cell, z-score	viable cells, % of control
14	CD180	2	-0.383	74.3	-0.497	94.6
15	CD180	3	-0.495	72	0.321	74
16	TSNAXIP1	1	-1.01	61.8	-1.39	99.7
17	TSNAXIP1	2	0.252	86.9	0.437	86.5
18	TSNAXIP1	3	-0.345	75	-0.579	97.7
19	TIE1	1	0.638	94.6	0.527	92
20	TIE1	2	-0.0471	80.9	-0.796	112
21	TIE1	3	0.538	92.6	0.0491	102
22	XPO1	1	-0.75	67	-0.133	77.5
23	XPO1	2	-0.679	68.4	-0.000761	76.4
24	XPO1	3	-0.862	64.7	0.105	70.4
25	CHAF1A	1	5.35 (active)	188	3.56	82.4
26	CHAF1A	2	3.1 (active)	144	3.34	66.5
27	CHAF1A	3	5.3 (active)	187	2.64	105
28	KIF20A	1	1.68	115	0.975	99.7
29	KIF20A	2	0.693	95.7	0.725	88.3
30	KIF20A	3	2.14	124	1.95	83.2
31	ZNF503	1	2.66	135	1.47	102
32	ZNF503	2	0.0345	82.6	-0.513	106
33	ZNF503	3	0.00547	82	-0.959	118
34	LRP6	1	-0.0175	81.5	0.171	87.1
35	LRP6	2	-1.77	46.7	-2.08	90.2
36	LRP6	3	-0.632	69.3	0.619	65.8
37	RAD17	1	3.48 (active)	151	2.83	80.2
38	RAD17	2	0.312	88.1	0.0504	97.1
39	RAD17	3	-1	62	-1.25	96.3
